Assay results from publication PMC11361369.
These are yes or no findings as the source states them, for the method shown. Binding seen in cells or lysates may run through a third protein. Some binding calls cover weakened binding; strength is not graded here. For part of these data: Where a sequence is shown, tags or fusion partners need not be part of it.

Sequences of proteins named here, by UniProt entry; tags and fusion partners are left off.
UniProt E9Q7E2: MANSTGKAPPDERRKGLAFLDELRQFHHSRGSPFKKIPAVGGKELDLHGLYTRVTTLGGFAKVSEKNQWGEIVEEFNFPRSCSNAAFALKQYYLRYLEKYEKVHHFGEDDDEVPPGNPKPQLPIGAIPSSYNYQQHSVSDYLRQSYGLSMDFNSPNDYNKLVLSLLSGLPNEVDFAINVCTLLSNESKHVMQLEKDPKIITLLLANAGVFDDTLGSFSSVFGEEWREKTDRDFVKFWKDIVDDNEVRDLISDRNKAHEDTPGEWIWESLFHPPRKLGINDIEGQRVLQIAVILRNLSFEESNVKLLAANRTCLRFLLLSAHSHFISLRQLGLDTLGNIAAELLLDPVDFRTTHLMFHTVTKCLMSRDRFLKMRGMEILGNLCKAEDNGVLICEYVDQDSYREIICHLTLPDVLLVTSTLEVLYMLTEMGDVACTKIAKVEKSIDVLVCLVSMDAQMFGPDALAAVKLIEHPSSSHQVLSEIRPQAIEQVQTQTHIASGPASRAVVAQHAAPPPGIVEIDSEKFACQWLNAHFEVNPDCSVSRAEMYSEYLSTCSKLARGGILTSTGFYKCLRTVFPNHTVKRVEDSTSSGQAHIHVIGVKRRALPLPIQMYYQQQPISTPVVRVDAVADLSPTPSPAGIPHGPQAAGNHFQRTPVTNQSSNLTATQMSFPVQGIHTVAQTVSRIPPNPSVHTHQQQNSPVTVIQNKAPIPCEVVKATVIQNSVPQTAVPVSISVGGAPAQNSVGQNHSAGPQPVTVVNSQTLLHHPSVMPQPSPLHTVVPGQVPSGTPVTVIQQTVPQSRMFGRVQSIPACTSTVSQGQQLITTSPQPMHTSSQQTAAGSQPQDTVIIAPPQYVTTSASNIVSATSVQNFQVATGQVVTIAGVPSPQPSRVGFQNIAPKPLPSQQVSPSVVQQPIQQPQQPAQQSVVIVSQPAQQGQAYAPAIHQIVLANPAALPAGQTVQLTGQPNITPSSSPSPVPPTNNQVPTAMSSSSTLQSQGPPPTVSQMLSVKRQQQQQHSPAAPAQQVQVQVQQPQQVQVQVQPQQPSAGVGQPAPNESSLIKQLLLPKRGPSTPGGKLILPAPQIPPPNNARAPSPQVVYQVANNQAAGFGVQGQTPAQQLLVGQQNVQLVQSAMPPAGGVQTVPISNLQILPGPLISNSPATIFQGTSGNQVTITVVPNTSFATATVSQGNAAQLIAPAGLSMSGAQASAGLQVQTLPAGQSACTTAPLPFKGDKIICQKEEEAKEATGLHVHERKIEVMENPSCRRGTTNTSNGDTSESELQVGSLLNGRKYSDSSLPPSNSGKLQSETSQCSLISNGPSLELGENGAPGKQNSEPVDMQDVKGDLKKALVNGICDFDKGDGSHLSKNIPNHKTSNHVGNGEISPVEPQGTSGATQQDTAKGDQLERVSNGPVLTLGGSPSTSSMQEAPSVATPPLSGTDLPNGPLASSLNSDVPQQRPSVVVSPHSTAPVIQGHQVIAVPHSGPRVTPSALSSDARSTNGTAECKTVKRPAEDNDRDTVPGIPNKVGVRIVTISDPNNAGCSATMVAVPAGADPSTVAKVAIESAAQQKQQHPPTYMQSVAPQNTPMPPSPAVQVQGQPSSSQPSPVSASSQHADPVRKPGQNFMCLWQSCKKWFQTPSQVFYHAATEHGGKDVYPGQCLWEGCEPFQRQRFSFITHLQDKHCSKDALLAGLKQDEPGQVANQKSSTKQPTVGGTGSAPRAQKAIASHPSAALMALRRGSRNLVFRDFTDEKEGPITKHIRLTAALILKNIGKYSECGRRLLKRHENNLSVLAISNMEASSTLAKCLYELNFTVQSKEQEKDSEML
UniProt Q61103: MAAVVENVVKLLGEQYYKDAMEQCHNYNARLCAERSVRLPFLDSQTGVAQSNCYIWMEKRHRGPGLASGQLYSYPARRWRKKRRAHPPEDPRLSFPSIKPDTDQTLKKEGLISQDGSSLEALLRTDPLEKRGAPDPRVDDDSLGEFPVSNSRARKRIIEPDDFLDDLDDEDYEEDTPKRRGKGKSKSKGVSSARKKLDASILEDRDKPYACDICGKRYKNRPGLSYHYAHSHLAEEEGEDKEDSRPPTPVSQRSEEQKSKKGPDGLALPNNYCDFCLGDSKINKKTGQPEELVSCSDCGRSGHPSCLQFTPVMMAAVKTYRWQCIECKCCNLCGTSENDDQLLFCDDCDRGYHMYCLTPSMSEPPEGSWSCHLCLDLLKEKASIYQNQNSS
UniProt P97496: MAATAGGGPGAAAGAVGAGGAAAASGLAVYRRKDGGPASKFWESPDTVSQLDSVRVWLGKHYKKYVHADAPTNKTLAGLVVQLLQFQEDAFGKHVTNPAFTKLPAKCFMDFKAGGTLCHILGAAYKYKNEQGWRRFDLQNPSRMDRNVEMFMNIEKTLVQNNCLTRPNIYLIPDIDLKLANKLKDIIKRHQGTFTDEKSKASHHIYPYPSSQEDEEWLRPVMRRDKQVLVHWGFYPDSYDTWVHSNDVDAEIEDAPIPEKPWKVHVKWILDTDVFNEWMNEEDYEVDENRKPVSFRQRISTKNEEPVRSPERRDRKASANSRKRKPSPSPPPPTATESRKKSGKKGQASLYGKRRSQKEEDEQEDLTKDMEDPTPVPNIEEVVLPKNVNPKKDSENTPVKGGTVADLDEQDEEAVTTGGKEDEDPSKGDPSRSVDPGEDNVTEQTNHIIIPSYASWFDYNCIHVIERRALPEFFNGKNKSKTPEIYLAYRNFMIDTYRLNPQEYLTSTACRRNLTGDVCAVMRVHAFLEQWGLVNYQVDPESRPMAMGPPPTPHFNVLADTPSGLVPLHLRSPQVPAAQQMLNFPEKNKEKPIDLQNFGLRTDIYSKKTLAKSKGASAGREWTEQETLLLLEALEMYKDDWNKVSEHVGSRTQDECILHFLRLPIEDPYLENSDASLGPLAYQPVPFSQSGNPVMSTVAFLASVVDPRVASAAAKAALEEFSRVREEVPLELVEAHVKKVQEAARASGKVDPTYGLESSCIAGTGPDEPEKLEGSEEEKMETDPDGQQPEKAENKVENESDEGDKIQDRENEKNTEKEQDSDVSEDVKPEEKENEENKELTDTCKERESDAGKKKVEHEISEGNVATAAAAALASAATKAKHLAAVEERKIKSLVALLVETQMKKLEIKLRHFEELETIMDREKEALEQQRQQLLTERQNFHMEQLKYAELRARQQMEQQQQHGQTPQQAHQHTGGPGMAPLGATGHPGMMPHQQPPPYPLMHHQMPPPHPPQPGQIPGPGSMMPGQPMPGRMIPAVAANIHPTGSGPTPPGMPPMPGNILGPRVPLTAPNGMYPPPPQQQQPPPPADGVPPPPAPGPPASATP
UniProt Q3TKT4: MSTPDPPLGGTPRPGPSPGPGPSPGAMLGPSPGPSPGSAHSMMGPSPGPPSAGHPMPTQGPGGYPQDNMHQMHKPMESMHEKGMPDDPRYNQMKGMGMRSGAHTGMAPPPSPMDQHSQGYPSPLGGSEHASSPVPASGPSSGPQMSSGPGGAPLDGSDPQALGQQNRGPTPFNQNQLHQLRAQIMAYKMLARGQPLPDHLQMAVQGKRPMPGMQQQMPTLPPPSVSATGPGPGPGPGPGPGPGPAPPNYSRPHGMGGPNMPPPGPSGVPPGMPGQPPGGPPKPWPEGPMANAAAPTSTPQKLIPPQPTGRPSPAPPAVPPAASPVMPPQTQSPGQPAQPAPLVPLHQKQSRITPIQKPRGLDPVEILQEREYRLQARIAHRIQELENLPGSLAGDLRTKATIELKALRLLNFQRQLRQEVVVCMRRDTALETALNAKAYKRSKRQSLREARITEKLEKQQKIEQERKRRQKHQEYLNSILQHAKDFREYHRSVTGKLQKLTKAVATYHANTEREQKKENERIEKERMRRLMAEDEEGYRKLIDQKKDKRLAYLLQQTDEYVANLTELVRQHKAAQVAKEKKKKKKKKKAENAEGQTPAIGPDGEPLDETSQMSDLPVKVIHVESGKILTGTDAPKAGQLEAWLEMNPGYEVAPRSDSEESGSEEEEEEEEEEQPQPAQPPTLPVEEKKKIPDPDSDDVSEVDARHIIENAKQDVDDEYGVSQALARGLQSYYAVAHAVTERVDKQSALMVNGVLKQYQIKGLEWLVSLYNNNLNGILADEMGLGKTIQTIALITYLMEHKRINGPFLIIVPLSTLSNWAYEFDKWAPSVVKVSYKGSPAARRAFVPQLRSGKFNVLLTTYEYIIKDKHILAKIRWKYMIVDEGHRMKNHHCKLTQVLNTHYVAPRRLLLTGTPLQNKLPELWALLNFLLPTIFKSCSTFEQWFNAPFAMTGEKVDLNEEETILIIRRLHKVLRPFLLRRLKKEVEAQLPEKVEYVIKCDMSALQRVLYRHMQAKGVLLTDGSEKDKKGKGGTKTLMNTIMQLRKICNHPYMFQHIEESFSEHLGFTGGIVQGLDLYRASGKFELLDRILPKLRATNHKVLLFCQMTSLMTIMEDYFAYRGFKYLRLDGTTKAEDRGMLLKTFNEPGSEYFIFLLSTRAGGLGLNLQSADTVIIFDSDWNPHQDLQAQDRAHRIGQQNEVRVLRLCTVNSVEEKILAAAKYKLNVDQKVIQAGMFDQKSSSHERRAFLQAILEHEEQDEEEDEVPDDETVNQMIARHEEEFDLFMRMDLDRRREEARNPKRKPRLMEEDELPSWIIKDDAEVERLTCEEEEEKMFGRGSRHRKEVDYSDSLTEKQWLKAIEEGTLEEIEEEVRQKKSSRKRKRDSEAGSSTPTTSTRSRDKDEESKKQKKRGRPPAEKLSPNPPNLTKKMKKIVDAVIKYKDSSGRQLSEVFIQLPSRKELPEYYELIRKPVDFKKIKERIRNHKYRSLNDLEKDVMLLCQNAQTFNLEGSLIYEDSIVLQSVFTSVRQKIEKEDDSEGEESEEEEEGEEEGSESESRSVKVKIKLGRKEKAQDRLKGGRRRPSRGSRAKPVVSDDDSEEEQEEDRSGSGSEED

T1: PHF10-2xFkbp-V5 (UniProt Q9D8M7)
T1 sequence: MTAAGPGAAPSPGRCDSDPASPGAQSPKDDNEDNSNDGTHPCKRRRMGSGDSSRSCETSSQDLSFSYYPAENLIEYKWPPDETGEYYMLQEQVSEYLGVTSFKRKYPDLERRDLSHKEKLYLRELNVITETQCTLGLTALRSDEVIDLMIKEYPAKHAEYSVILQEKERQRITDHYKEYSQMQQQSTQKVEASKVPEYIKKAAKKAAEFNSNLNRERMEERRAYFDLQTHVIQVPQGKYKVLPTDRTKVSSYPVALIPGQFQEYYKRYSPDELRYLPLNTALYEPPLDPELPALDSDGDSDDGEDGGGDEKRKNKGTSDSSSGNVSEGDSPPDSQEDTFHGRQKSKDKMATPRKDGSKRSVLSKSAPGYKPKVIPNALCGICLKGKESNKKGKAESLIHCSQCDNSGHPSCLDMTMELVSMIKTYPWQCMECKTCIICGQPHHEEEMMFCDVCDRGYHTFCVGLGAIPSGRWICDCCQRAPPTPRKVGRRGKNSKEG

T2: BRD9-2xFkbp-V5 (UniProt Q3UQU0)
T2 sequence: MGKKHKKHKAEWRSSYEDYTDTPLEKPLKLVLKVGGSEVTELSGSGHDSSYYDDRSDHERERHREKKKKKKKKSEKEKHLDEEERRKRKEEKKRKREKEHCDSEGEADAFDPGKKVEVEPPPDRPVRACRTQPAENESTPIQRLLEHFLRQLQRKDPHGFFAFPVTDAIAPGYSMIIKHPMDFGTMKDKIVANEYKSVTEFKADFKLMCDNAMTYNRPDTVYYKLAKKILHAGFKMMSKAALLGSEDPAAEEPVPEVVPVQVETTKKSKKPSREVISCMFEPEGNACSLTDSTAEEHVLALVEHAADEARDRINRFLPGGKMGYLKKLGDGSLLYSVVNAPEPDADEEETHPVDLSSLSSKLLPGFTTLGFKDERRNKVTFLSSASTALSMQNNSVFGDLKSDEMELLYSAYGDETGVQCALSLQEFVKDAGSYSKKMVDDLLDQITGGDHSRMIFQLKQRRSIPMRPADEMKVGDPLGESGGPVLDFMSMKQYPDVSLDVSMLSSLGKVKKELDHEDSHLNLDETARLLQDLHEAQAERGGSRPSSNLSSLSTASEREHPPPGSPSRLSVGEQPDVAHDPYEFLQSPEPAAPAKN


Experiments:
[1] = target: ARID2 (mouse (endogenous in mESCs)) (UniProt E9Q7E2); experiment: co-IP; rabbit anti-ARID2 on protein G beads, protein extract of mESCs expressing PHF10-2xFkbp-V5 in IP buffer (20 mM Hepes pH 7.5, 150 mM KCl, 0.1% Triton X-100), overnight at 4°C; Western blot for BRG1, BAF155 and V5
DPF2-2xFkbp-V5 = DPF2-2xFkbp-V5 (UniProt Q61103); experiment: co-IP; mouse anti-V5 (E9H8O) on protein G beads, mESC ammonium sulfate protein extract in IP buffer (20 mM Hepes pH 7.5, 150 mM KCl, 0.1% Triton X-100), overnight at 4°C; Western blot for BAF155 and BRG1
PHF10-2xFkbp-V5 = target: T1, PHF10-2xFkbp-V5; experiment: as above
BRD9-2xFkbp-V5 = target: T2, BRD9-2xFkbp-V5; experiment: as above

Row | binding [1] | binding (DPF2-2xFkbp-V5) | binding (PHF10-2xFkbp-V5) | binding (BRD9-2xFkbp-V5) | Molecule
1 | binds | binds | binds | binds | BAF155 (SMARCC1) (from UniProt P97496 1-1104)
2 | binds | binds | binds | binds | BRG1 (SMARCA4) (from UniProt Q3TKT4 1-1613)
3 | binds |  |  |  | PHF10-2xFkbp-V5 (protein, UniProt Q9D8M7 1-497) MTAAGPGAAPSPGRCDSDPASPGAQSPKDDNEDNSNDGTHPCKRRRMGSGDSSRSCETSSQDLSFSYYPAENLIEYKWPPDETGEYYMLQEQVSEYLGVTSFKRKYPDLERRDLSHKEKLYLRELNVITETQCTLGLTALRSDEVIDLMIKEYPAKHAEYSVILQEKERQRITDHYKEYSQMQQQSTQKVEASKVPEYIKKAAKKAAEFNSNLNRERMEERRAYFDLQTHVIQVPQGKYKVLPTDRTKVSSYPVALIPGQFQEYYKRYSPDELRYLPLNTALYEPPLDPELPALDSDGDSDDGEDGGGDEKRKNKGTSDSSSGNVSEGDSPPDSQEDTFHGRQKSKDKMATPRKDGSKRSVLSKSAPGYKPKVIPNALCGICLKGKESNKKGKAESLIHCSQCDNSGHPSCLDMTMELVSMIKTYPWQCMECKTCIICGQPHHEEEMMFCDVCDRGYHTFCVGLGAIPSGRWICDCCQRAPPTPRKVGRRGKNSKEG
